# Assay results taken from the M2OR odorant receptor database.
# Chains of the proteins cited; added tags and fusions are not shown. A line that says so, or that is headed by a name, gives the form on record, which may keep a tag or linker.
# O5AL1, as listed by the source: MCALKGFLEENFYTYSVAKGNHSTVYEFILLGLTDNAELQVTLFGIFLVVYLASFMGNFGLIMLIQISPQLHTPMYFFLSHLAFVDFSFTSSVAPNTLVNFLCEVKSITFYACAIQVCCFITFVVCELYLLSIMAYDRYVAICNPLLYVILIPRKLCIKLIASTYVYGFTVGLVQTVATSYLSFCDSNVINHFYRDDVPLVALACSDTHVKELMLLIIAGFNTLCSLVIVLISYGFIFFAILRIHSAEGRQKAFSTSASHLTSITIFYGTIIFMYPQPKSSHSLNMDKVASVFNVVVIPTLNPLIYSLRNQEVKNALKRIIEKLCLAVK
# The other results are listed elsewhere or left out. Calls are pooled over several reports, among them a noisy single-well screen.
# Tests used:
# Conditions in all cases: stereoisomer not certain
# O52I2 = system: T1, O52I2
# T1 sequence (whole entry): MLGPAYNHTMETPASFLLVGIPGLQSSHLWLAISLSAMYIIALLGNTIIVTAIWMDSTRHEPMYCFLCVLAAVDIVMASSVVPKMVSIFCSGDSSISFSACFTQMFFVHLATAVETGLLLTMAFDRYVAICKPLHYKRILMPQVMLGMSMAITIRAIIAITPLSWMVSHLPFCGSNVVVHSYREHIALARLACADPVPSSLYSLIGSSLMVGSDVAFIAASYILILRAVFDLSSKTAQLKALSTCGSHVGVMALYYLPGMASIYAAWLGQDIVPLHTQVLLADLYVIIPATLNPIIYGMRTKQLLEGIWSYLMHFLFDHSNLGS
# In short: (§1)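 Values were gathered from published papers (main text and supplementary material), with extra details requested from the original authors when needed, and checked for typos and inconsistencies. Each receptor–molecule pair is called responsive (active) if the original authors judged the measured signal statistically different from baseline, and non-responsive (inactive) otherwise. Assay methods varied by source, often transient mammalian cell-line luciferase assays. Recorded details include cell line, G-protein, co-transfected protein and tags.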
# O52J3 = system: T2, O52J3
# T2 sequence (whole entry): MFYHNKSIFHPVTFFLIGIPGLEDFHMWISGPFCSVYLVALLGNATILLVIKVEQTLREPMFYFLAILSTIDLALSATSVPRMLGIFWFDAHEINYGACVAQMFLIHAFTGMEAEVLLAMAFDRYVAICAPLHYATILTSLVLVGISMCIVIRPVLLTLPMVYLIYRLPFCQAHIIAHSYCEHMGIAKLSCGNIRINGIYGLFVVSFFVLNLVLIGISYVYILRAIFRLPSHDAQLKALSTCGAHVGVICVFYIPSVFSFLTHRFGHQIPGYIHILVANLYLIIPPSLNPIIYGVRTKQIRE
# In short: as §1
# O52L1 = system: T3, O52L1
# T3 sequence (whole entry): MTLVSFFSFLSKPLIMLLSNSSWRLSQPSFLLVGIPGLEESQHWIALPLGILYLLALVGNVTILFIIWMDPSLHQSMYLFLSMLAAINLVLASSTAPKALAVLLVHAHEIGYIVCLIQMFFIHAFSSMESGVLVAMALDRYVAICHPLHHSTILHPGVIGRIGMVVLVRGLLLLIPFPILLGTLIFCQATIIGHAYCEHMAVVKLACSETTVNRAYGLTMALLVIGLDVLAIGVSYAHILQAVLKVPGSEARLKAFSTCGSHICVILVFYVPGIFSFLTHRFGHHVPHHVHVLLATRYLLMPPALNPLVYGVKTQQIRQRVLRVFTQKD
# In short: as §1
# O52L2 = system: T4, O52L2
# T4 sequence (whole entry): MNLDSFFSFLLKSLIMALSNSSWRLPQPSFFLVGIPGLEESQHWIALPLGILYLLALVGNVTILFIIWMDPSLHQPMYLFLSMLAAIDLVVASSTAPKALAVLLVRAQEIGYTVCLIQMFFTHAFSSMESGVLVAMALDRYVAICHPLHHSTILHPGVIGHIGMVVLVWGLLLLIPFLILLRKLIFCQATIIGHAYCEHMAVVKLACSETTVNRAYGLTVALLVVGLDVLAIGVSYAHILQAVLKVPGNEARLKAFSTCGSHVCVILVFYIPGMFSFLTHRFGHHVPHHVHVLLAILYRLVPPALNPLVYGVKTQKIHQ
# In short: as §1
# O52M1 = system: T5, O52M1
# T5 sequence (whole entry): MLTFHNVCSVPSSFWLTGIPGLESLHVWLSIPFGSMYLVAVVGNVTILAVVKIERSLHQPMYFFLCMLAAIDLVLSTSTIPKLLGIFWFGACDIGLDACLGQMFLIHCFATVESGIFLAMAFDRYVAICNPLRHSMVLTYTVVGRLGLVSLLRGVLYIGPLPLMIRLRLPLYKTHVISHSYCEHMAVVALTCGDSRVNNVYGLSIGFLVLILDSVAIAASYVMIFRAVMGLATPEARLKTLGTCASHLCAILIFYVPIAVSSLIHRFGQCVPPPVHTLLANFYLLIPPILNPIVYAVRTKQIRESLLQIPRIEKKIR
# In short: as §1
# O52N1 = system: T6, O52N1
# T6 sequence (whole entry): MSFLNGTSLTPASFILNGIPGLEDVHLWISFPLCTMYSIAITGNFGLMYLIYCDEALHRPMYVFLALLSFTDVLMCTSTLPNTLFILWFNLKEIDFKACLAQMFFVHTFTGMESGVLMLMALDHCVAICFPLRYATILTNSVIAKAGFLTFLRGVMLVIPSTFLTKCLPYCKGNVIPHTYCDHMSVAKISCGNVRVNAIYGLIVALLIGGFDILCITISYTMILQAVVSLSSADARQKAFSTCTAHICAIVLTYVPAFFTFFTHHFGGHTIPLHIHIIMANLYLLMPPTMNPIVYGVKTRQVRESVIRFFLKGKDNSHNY
# In short: as §1
# O52N2 = system: T7, O52N2
# T7 sequence (whole entry): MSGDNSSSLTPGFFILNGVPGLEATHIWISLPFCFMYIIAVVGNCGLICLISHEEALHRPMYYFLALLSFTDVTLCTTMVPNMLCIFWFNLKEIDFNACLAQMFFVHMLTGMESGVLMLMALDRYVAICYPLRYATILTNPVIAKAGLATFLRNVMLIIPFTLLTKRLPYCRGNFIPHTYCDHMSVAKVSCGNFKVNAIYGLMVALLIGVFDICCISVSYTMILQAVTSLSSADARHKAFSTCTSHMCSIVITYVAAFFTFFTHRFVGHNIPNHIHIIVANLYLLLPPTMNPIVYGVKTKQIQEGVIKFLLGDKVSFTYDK
# In short: as §1
# O52N4 = system: T8, O52N4
# T8 sequence (whole entry): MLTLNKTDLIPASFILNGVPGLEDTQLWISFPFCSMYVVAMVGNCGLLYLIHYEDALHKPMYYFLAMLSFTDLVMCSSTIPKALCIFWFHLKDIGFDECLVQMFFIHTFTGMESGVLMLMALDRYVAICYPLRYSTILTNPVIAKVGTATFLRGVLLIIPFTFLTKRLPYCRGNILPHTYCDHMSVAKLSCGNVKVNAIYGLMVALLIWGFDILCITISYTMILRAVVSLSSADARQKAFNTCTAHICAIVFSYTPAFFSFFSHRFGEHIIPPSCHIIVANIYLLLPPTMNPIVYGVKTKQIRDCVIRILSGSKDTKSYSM
# In short: as §1
# O52P1 = system: T9, O52P1
# T9 sequence (whole entry): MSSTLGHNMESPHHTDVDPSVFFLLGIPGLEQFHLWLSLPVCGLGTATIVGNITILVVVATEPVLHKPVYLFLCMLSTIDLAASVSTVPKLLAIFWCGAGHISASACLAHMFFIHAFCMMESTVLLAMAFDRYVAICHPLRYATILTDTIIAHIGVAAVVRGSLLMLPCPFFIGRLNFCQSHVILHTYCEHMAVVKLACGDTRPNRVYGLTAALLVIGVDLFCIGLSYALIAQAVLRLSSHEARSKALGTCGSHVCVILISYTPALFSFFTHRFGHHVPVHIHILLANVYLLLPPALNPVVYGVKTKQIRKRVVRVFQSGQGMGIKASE
# In short: as §1
# O52R1 = system: T10, O52R1
# T10 sequence (whole entry): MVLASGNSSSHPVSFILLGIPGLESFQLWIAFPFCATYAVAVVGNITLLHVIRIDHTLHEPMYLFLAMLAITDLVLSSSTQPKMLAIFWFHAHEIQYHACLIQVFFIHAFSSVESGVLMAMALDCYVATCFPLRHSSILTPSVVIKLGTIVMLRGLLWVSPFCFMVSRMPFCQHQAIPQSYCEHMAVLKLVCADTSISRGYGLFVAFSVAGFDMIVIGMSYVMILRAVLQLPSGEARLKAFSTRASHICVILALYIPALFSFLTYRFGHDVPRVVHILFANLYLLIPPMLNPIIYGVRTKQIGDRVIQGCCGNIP
# In short: as §1
# O52W1 = system: T11, O52W1
# T11 sequence (whole entry): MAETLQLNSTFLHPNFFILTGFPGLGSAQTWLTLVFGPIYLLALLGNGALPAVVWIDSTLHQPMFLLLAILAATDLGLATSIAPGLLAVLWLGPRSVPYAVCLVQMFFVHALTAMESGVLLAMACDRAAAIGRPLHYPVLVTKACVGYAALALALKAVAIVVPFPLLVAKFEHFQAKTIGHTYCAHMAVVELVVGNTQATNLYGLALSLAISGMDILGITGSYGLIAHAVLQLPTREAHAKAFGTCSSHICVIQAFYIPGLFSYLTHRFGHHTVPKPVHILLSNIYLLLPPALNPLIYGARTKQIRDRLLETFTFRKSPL
# In short: as §1
# O56A3 = system: T12, O56A3
# T12 sequence (whole entry): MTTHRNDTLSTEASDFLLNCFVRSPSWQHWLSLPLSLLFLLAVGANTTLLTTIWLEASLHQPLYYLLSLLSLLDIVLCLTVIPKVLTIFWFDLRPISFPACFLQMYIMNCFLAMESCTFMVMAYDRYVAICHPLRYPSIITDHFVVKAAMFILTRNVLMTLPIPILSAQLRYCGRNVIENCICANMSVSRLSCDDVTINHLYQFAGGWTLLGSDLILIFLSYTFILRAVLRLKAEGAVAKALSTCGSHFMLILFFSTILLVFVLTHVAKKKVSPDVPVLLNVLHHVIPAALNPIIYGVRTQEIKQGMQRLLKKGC
# In short: as §1
# O56B1 = system: T13, O56B1
# T13 sequence (whole entry): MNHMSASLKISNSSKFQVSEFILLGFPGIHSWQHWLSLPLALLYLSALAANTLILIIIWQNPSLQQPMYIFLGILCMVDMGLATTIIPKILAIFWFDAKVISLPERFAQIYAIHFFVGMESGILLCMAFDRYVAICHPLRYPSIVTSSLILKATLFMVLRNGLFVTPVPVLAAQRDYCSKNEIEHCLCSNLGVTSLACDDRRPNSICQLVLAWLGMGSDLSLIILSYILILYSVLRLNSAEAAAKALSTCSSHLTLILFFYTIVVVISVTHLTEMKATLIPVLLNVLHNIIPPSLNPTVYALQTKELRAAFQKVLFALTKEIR
# In short: as §1
# O56B4 = system: T14, O56B4
# T14 sequence (whole entry): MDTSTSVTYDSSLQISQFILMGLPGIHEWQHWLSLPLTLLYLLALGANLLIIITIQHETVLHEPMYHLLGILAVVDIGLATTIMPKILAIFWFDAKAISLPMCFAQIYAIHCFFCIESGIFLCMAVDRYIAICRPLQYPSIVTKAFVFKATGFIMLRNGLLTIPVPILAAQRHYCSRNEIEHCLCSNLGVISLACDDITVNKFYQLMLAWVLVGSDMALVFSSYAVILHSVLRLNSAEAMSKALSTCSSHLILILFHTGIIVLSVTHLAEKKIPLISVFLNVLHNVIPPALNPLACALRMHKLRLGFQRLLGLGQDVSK
# In short: as §1
# O5AC2 = system: T15, O5AC2
# T15 sequence (whole entry): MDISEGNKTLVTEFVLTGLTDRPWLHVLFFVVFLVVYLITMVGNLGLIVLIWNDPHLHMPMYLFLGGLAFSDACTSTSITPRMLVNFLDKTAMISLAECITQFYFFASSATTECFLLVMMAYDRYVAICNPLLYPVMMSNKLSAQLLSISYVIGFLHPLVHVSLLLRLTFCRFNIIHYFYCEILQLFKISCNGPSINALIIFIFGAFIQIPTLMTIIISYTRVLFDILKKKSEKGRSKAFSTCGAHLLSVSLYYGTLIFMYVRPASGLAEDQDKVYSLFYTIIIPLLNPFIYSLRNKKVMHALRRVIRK
# In short: as §1
# O5AK2 = system: T16, O5AK2
# T16 sequence (whole entry): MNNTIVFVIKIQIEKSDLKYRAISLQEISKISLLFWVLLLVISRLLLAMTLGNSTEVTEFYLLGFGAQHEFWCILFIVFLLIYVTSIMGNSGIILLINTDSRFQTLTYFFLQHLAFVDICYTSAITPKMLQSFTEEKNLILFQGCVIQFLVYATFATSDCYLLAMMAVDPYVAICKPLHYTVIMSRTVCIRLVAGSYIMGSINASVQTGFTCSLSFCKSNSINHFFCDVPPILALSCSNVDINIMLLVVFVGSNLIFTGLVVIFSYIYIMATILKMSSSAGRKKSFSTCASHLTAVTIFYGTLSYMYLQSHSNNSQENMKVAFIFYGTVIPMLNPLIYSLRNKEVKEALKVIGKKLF
# In short: as §1
# O5AK3 = system: T17, O5AK3
# T17 sequence (whole entry): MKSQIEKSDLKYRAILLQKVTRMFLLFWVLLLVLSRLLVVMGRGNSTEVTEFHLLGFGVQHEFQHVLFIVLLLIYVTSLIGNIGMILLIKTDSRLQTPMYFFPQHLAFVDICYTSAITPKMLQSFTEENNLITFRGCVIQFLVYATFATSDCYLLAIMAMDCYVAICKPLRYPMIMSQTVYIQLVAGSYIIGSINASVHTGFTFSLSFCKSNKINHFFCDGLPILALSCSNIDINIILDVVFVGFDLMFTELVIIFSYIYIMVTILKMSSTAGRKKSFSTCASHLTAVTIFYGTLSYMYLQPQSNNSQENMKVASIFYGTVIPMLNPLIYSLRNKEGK
# In short: as §1
# O5AL1 [1] = system: O5AL1
# In short: as §1
# O5AL1 [2] = system: O5AL1; remark: listed apart in the source
# In short: as §1
SMILES,odorant receptor agonist call (O52I2),odorant receptor agonist call (O52J3),odorant receptor agonist call (O52L1),odorant receptor agonist call (O52L2),odorant receptor agonist call (O52M1),odorant receptor agonist call (O52N1),odorant receptor agonist call (O52N2),odorant receptor agonist call (O52N4),odorant receptor agonist call (O52P1),odorant receptor agonist call (O52R1),odorant receptor agonist call (O52W1),odorant receptor agonist call (O56A3),odorant receptor agonist call (O56B1),odorant receptor agonist call (O56B4),odorant receptor agonist call (O5AC2),odorant receptor agonist call (O5AK2),odorant receptor agonist call (O5AK3),odorant receptor agonist call (O5AL1 [1]),odorant receptor agonist call (O5AL1 [2])
CCCCCCCC=O,inactive,inactive,inactive,inactive,inactive,inactive,inactive,inactive,inactive,inactive,inactive,inactive,inactive,inactive,inactive,inactive,inactive,–,–
CCCCCCCCOC(C)=O,inactive,inactive,inactive,inactive,inactive,inactive,inactive,inactive,inactive,inactive,inactive,inactive,inactive,inactive,inactive,inactive,inactive,–,–
CCCC(=O)O,inactive,inactive,inactive,inactive,inactive,inactive,inactive,inactive,inactive,inactive,inactive,inactive,inactive,inactive,inactive,inactive,inactive,active,inactive
